Results as given in the supplement of paper PMC12819154, “High-throughput peptide-centric local stability assay extends protein–ligand identification to membrane proteins, tissues and bacteria” (Nature Structural & Molecular Biology, 2025).
Some of the results follow. Most values lie at the level of the controls, where differences are scatter.

Chains of the proteins cited; added tags and fusions are not shown. Lines headed by an entry give the natural chain unless they say otherwise; changes in a name come on top.
UniProt Q9P1W9: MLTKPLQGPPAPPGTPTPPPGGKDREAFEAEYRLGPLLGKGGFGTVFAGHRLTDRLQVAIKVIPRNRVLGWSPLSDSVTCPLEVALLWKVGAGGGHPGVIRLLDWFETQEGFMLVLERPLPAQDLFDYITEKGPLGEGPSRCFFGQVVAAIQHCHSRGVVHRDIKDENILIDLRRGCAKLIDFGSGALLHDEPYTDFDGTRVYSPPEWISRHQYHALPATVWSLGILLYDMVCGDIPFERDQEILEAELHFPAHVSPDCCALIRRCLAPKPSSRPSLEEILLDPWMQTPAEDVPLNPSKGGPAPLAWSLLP
UniProt Q9P2X3: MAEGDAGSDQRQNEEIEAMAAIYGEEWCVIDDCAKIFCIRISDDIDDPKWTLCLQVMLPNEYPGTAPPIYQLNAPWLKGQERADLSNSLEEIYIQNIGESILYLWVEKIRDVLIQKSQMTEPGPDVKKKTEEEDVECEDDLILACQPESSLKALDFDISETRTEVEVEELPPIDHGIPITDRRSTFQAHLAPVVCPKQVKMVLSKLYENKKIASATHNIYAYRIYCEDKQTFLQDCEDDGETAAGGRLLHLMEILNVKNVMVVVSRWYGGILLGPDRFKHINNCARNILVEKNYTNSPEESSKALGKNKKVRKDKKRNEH
UniProt Q9UBZ9: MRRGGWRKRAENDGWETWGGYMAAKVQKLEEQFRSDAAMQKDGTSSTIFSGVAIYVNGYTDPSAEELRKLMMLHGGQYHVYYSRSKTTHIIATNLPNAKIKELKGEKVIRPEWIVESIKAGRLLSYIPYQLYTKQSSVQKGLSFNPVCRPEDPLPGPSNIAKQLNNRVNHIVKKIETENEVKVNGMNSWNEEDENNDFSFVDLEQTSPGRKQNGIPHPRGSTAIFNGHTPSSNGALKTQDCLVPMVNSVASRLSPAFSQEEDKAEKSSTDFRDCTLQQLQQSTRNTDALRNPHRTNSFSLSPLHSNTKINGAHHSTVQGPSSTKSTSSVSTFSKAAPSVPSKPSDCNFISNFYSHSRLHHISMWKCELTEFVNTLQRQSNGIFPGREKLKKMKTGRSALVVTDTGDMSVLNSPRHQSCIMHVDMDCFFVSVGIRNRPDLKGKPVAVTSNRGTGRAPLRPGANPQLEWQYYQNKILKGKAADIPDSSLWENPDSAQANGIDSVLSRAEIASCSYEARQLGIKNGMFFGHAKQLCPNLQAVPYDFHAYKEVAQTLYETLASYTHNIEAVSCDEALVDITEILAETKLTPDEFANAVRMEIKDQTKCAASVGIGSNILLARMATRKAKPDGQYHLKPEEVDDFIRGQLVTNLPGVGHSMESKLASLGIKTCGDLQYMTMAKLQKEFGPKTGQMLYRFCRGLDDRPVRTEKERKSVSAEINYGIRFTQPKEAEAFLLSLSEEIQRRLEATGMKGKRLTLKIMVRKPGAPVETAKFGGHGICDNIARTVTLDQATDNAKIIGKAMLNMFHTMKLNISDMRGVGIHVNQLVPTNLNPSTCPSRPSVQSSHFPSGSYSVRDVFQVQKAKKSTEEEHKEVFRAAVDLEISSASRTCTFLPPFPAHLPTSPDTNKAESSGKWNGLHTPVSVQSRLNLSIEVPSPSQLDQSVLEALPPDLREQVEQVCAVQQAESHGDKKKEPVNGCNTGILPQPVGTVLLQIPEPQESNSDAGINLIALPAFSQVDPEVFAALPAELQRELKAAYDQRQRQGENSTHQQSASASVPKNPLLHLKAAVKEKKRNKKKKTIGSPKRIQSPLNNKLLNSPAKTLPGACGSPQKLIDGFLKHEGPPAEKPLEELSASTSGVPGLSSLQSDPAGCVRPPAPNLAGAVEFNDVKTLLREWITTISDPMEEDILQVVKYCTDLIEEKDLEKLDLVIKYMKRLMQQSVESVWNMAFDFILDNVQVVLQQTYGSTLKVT
UniProt Q9NYJ1, whole entry: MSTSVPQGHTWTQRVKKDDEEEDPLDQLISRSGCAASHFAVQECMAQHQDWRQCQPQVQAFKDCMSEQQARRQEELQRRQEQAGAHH
UniProt Q9NZW5: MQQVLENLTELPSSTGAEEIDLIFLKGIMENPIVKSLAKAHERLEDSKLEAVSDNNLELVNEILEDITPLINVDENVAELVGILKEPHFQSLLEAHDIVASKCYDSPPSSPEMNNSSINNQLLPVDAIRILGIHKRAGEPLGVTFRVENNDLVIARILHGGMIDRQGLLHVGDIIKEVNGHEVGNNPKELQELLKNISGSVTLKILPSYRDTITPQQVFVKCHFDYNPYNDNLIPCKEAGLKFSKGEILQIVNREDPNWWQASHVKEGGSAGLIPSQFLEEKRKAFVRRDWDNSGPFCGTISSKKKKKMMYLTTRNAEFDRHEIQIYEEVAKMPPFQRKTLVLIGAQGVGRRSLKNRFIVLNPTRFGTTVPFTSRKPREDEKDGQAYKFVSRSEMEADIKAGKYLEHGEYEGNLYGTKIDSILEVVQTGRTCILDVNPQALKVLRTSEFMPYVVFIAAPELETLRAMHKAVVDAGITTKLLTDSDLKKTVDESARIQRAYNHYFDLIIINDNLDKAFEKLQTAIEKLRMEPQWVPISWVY
UniProt Q9NX63: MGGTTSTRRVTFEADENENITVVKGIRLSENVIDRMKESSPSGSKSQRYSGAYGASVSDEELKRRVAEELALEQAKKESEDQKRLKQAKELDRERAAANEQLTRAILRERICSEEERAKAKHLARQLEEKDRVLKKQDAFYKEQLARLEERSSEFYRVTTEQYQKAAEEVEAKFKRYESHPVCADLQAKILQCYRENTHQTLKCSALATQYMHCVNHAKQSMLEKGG
UniProt Q9NXR8, whole entry: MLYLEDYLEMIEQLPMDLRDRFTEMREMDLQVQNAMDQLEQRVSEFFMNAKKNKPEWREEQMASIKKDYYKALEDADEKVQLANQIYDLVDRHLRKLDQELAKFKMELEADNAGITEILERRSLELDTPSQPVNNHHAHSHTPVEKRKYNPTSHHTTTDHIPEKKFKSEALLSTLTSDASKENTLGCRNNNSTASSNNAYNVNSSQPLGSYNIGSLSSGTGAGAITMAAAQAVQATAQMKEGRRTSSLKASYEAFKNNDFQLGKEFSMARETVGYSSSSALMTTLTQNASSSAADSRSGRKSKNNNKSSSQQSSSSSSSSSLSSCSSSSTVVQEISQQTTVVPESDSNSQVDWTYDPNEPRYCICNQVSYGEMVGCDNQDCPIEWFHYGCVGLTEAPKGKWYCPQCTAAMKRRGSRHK
UniProt Q9UH36: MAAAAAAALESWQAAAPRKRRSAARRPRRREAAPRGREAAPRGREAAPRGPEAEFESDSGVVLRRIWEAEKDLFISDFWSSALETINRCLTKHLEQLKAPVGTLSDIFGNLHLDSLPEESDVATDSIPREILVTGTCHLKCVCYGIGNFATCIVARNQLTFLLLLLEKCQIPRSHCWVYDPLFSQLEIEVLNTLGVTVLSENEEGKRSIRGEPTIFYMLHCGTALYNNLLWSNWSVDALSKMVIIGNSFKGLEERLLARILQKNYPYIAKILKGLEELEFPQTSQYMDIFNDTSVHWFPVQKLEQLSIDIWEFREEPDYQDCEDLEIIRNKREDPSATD
UniProt Q9P2G1: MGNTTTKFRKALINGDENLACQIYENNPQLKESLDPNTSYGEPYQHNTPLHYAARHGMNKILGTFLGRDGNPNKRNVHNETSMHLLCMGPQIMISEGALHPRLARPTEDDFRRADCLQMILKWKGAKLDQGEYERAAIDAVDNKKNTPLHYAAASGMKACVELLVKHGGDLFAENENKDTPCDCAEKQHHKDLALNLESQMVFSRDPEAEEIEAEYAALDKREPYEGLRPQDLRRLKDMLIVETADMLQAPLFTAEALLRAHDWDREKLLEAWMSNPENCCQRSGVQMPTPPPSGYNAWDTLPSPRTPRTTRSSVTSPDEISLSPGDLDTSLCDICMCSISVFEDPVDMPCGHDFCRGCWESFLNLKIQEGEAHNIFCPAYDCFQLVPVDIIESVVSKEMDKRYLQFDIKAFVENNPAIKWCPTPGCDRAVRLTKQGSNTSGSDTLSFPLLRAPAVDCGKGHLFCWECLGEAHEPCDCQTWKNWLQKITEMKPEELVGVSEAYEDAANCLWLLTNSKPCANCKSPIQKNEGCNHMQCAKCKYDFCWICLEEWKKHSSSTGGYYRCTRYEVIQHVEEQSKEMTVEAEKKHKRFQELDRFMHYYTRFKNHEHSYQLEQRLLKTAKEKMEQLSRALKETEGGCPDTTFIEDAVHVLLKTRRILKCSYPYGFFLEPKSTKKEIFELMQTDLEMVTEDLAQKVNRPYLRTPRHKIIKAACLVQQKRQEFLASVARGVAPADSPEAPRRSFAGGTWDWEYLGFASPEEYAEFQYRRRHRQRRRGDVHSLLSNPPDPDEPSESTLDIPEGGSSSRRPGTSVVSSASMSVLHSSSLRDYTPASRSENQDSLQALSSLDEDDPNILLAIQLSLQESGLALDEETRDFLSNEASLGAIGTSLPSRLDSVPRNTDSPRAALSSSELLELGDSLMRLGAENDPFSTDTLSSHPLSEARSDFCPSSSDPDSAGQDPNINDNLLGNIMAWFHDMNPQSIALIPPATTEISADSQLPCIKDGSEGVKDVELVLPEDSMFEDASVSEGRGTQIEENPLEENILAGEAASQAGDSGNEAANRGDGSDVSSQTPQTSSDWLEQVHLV

compound: Cc1nc(Nc2ncc(C(=O)Nc3c(C)cccc3Cl)s2)cc(N2CCN(CCO)CC2)n1 [dasatinib]; test: log2 fold change of tryptic peptide abundance, ligand vs vehicle (limited proteolysis) (log2 ratio); higher = more trypsin-susceptible (destabilized); conditions: ligand concentration: 5 uM; sample: K562 cleared lysate

Row | Target | log2 fold change
1 | PIM2 (peptide sequence: VYSPPEWISR, peptide start residue: 202) (UniProt Q9P1W9) | 0.238
2 | IMPACT (peptide sequence: NVMVVVSR, peptide start residue: 259) (UniProt Q9P2X3) | -0.33
3 | REV1 (peptide sequence: GKPVAVTSNR, peptide start residue: 441) (UniProt Q9UBZ9) | -0.257
4 | UniProt Q9NYJ1 (peptide sequence: VKKDDEEEDPLDQLISR, peptide start residue: 15) | -0.0571
5 | MPP6 (peptide sequence: DTITPQQVFVK, peptide start residue: 211) (UniProt Q9NZW5) | -0.457
6 | CHCHD3 (peptide sequence: VAEELALEQAK, peptide start residue: 66) (UniProt Q9NX63) | 0.394
7 | ING3 (peptide sequence: VSEFFMNAK, peptide start residue: 43) (UniProt Q9NXR8) | 0.275
8 | UniProt Q9NZM5 (peptide sequence: DVLAHQVPNAKK, peptide start residue: 133) | -0.152
9 | SRRD (peptide sequence: NKREDPSATD, peptide start residue: 330) (UniProt Q9UH36) | -0.0443
10 | ANKIB1 (peptide sequence: WCPTPGCDR, peptide start residue: 421) (UniProt Q9P2G1) | 0.164

2 entries picked at random from the list so far:
Row | Target | log2 fold change
8 | UniProt Q9NZM5 (peptide sequence: DVLAHQVPNAKK, peptide start residue: 133) | -0.152
5 | MPP6 (peptide sequence: DTITPQQVFVK, peptide start residue: 211) (UniProt Q9NZW5) | -0.457
